Measurements: publication PMC12011380
These are yes or no findings as the source states them, for the method shown. Binding seen in cells or lysates may run through a third protein. Some entries that bind do so weakly or less than the wild type.

Protein sequences, listed by entry. Tags and fused reporters are not part of them.
UniProt Q9BXW9: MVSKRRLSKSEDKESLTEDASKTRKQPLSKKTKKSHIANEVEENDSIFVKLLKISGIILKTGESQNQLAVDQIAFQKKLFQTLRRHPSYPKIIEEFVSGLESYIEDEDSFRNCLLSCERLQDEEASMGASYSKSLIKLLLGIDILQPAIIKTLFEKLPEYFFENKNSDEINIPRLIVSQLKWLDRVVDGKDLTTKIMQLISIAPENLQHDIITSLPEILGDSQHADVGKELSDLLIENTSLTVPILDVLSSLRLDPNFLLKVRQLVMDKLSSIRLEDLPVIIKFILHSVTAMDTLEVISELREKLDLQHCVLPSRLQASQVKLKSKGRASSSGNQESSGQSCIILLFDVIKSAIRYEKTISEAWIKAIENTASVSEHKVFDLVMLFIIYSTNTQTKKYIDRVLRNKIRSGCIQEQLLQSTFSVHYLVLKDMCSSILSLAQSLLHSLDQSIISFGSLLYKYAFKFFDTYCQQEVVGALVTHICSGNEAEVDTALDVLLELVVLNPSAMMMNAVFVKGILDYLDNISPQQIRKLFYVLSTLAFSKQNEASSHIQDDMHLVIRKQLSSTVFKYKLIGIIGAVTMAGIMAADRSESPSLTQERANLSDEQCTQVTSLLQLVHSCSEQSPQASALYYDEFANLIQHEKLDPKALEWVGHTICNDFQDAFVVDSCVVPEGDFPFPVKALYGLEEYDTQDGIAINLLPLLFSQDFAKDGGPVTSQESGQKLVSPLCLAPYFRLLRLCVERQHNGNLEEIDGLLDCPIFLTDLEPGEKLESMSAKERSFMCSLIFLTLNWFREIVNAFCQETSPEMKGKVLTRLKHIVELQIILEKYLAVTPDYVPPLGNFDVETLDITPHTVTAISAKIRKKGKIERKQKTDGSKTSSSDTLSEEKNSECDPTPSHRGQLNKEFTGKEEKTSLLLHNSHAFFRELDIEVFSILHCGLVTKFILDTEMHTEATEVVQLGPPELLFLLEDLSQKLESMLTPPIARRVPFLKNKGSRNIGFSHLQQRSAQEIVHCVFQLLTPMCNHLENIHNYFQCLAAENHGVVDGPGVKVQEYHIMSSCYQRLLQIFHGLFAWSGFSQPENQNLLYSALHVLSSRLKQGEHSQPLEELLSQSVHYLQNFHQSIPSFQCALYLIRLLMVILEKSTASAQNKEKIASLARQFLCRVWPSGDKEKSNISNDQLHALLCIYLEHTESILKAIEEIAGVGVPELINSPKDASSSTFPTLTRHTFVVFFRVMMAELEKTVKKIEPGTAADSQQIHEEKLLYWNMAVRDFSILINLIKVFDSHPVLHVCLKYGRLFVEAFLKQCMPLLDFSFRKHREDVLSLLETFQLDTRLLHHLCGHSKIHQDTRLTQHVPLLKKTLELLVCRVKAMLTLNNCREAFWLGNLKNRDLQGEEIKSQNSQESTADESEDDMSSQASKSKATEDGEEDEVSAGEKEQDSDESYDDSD
UniProt P53350: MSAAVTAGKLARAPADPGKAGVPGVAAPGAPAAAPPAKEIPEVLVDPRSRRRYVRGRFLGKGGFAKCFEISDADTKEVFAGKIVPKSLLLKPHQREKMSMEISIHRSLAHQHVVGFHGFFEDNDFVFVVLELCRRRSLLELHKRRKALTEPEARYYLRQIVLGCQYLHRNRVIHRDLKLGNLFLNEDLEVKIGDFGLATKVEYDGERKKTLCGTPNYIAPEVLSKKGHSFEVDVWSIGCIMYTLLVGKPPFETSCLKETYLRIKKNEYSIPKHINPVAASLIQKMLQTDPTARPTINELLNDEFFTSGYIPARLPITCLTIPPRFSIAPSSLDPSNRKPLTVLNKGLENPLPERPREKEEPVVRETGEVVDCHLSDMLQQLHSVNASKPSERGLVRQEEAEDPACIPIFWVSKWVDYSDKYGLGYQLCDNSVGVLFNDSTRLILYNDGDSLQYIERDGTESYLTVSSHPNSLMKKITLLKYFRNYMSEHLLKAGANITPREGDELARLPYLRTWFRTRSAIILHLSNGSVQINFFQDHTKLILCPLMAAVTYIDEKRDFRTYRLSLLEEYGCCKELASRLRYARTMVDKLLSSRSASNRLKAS

Assays:
[1] = target: T1, FANCA (human (endogenous in HeLa)) (UniProt O15360); experiment: co-IP; endogenous FANCA or FANCD2 immunoprecipitated from precleared HeLa lysates (antibody overnight at 4°C, protein A/G magnetic beads), Western blot for PLK1; FANCA-IP from cells unsynchronized, MMC-treated, or arrested with nocodazole or taxol; FANCD2-IP from nocodazole-arrested cells without or with volasertib (20 nmol/L)
T1 sequence: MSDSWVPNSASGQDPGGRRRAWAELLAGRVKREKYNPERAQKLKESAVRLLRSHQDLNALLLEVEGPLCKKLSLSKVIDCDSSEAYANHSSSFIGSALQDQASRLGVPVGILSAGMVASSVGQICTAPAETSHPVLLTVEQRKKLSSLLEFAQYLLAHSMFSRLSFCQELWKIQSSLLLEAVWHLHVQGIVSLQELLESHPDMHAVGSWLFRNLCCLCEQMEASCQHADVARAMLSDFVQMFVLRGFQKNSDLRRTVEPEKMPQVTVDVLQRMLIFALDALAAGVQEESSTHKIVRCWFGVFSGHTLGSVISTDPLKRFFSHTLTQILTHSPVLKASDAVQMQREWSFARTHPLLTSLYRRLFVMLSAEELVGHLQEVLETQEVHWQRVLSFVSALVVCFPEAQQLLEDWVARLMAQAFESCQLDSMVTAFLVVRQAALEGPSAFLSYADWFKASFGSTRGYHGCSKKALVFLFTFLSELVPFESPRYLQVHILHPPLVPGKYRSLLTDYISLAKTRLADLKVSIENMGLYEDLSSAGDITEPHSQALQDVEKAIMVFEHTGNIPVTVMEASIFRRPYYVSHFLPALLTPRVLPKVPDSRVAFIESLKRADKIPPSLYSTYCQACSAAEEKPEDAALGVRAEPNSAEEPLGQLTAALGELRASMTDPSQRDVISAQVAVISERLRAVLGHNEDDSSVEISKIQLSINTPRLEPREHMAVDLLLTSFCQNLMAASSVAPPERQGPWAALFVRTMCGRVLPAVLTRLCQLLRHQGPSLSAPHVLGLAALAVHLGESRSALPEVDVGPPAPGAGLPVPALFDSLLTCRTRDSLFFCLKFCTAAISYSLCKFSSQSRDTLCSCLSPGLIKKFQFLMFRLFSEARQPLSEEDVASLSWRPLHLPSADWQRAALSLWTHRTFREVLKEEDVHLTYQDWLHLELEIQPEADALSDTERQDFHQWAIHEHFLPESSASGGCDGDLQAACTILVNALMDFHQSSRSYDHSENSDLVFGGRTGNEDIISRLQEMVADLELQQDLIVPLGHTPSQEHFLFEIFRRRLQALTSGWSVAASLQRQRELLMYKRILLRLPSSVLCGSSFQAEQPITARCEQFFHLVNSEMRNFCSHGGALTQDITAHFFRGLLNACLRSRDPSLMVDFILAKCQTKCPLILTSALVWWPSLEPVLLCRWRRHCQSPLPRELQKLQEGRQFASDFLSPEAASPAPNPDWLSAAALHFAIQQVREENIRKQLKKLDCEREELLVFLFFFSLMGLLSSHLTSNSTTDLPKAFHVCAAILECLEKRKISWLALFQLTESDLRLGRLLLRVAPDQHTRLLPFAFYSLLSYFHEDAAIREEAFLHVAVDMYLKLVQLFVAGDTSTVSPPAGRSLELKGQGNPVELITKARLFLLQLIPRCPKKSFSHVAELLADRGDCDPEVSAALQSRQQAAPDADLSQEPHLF

[2] = target: FANCD2 (human (endogenous in HeLa)) (UniProt Q9BXW9); experiment: as above
[3] = target: T1, FANCA (human (endogenous in HeLa)); experiment: proximity ligation; Duolink PLA with immunofluorescence in fixed mitotic HeLa cells stably expressing GFP-CENPA; signal at centromeres; FANCD2-PLK1 also after volasertib treatment
[4] = target: FANCD2 (human (endogenous in HeLa)) (UniProt Q9BXW9); experiment: as above

Measured: binding

polo-like kinase 1 (from UniProt P53350 1-603)
binds: all assays above
